From PubChem BioAssay AID192 (DTP/NCI, 2004)
The list is a part of this screen's results and no random one: it gathers tests that were run many times, whatever their T/C, doses with no T/C, and many T/C values between a quarter and a half above the control. Other doses and runs of a compound stand elsewhere. T/C gives the treated animals as a percentage of the vehicle group. Some doses have a count of surviving animals in place of a T/C: the source files T/C as zero there, which appears to mark a toxic dose or a test without result, not a measured value. Some doses without a T/C left all or most animals alive at the check, yet need not have been tolerated: survival well below the control is almost never listed, so the zero probably covers shortened survival too. Counts of survivors are from the toxicity check (mostly the fifth day) where no day follows; animals may have died later. Schedules are NCI's codes, taken here to give the interval after Q, in days (D) or hours (H), and the number of doses after X. Some entries were tested several times; the values are given in rising order. For survival time, the PubChem record calls one and a half times the control and up active, and a quarter to a half above the control has no call in these data; cut-offs in other NCI protocols can differ. Some T/C values are followed by the survivors on the day toxicity was checked, most often the fifth; where none is given, no animal had died by that day.

System: BDF1 mice, B16 melanoma ip, median survival T/C
Test: NCI In Vivo Anticancer Drug Screen. Data for tumor model B16 Melanoma (intraperitoneal) in B6D2F1 (BDF1) mice
Settings: T/C endpoint: median survival time, higher T/C = longer survival
Summary of the method: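 Transplantable tumor model; survival or tumor size measured; reported as T/C, treated over vehicle control.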

[1] = dose: 400.0 mg/kg/injection, schedule: Q01DX009 (ip), vehicle: Klucel (hydroxypropylcellulose) (HPC)
[2] = dose: 50.0 mg/kg/injection, schedule: Q01DX009 (ip), vehicle: saline
[3] = dose: 100.0 mg/kg/injection, schedule: Q01DX009 (ip), vehicle: saline
[4] = dose: 100.0 mg/kg/injection, schedule: Q01DX009 (ip), vehicle: saline with Tween-80
[5] = dose: 200.0 mg/kg/injection, schedule: Q01DX009 (ip), vehicle: saline with Tween-80
[6] = dose: 400.0 mg/kg/injection, schedule: Q01DX009 (ip), vehicle: saline with Tween-80

Structure (SMILES): O=C(C=C(C(F)(F)Cl)C(F)(F)Cl)c1cccs1
- survivor count (dose: 1.25 mg/kg/injection, schedule: Q01DX009 (ip), vehicle: saline): 10 of 10
- survivor count (dose: 2.5 mg/kg/injection, schedule: Q01DX009 (ip), vehicle: saline with Tween-80): 10 of 10
- survivor count (dose: 5.0 mg/kg/injection, schedule: Q01DX009 (ip), vehicle: saline with Tween-80): 4 of 10
- survivor count (dose: 10.0 mg/kg/injection, schedule: Q01DX009 (ip), vehicle: saline with Tween-80): 2 of 10

Structure (SMILES): O=C(O)C(S)c1ccc2ccccc2c1 (centres undefined)
- survivor count [1]: 4 of 10

Structure (SMILES): FC(F)(F)c1ccc2c(c1)N(CCCN1CC[N+]3(CCOCC3)CC1)c1ccccc1S2
- survivor count (dose: 0.5 mg/kg/injection, schedule: Q01DX009 (ip), vehicle: saline): 10 of 10
- survivor count (dose: 4.0 mg/kg/injection, schedule: Q01DX009 (ip), vehicle: saline): 10 of 10

Structure (SMILES): c1ccc2c(NCCCCCCCCNc3c4ccccc4nc4ccccc34)c3ccccc3nc2c1
- T/C (dose: 2.5 mg/kg/injection, schedule: Q01DX009 (ip), vehicle: Klucel (hydroxypropylcellulose) (HPC)): 129 and 146 % of control
- T/C (dose: 10.0 mg/kg/injection, schedule: Q01DX009 (ip), vehicle: Klucel (hydroxypropylcellulose) (HPC)): 139 % of control
- survivor count (dose: 20.0 mg/kg/injection, schedule: Q01DX009 (ip), vehicle: Klucel (hydroxypropylcellulose) (HPC)): 10 of 10
- survivor count (dose: 40.0 mg/kg/injection, schedule: Q01DX009 (ip), vehicle: Klucel (hydroxypropylcellulose) (HPC)): 8 of 10 and 10 of 10
- survivor count (dose: 80.0 mg/kg/injection, schedule: Q01DX009 (ip), vehicle: Klucel (hydroxypropylcellulose) (HPC)): 0 of 10 and 3 of 10

Structure (SMILES): COc1cc(/C=C(/C)[N+](=O)[O-])ccc1O
- survivor count (dose: 200.0 mg/kg/injection, schedule: Q01DX009 (ip), vehicle: carboxymethylcellulose (CMC)): 4 of 10

Structure (SMILES): Cc1cc(C)c(-c2c(C)cc(C)c(N)c2C)c(C)c1N
- survivor count (dose: 150.0 mg/kg/injection, schedule: Q04DX003 (ip), vehicle: Klucel (hydroxypropylcellulose) (HPC)): 10 of 10
- survivor count (dose: 300.0 mg/kg/injection, schedule: Q04DX003 (ip), vehicle: Klucel (hydroxypropylcellulose) (HPC)): 7 of 10

Structure (SMILES): COC1=NCN=C2SC=C(N)N=C12
- T/C (dose: 12.5 mg/kg/injection, schedule: Q01DX009 (ip), vehicle: saline): 135 % of control
- survivor count [2]: 10 of 10
- survivor count [3]: 10 of 10

Structure (SMILES): CC(=O)OCCN1CC1
- survivor count [2]: 0 of 10
- survivor count [3]: 0 of 10

Structure (SMILES): C=C1C(=O)OC2C=C(C)C3C(O)CC(C)(O)C3CC12 (centres undefined)
- survivor count (dose: 200.0 mg/kg/injection, schedule: Q01DX009 (ip), vehicle: Klucel (hydroxypropylcellulose) (HPC)): 10 of 10
- survivor count [1]: 5 of 10

Structure (SMILES): COc1cc(NC(=O)CN(CCCl)CCCl)cc(OC)c1OC
- T/C (dose: 25.0 mg/kg/injection, schedule: Q01DX009 (ip), vehicle: saline with Tween-80): 127 % of control [8 of 10 alive]
- T/C [4]: 127 % of control
- T/C [5]: 139 % of control
- survivor count [5]: 10 of 10
- survivor count [6]: 5 of 10

Structure (SMILES): Cc1cc(C(=O)NNCc2ccccc2)no1
- survivor count (dose: 3.12 mg/kg/injection, schedule: Q01DX009 (ip), vehicle: Klucel (hydroxypropylcellulose) (HPC)): 10 of 10
- survivor count (dose: 6.25 mg/kg/injection, schedule: Q01DX009 (ip), vehicle: Klucel (hydroxypropylcellulose) (HPC)): 10 of 10
- survivor count (dose: 12.5 mg/kg/injection, schedule: Q01DX009 (ip), vehicle: Klucel (hydroxypropylcellulose) (HPC)): 10 of 10
- survivor count (dose: 50.0 mg/kg/injection, schedule: Q01DX009 (ip), vehicle: Klucel (hydroxypropylcellulose) (HPC)): 10 of 10

Structure (SMILES): CCOC(=O)C(Cc1ccc(Cl)c(Cl)c1)(Cc1ccc(Cl)c(Cl)c1)C(=O)OCC
- survivor count [4]: 10 of 10
- survivor count [5]: 10 of 10
- survivor count [6]: 10 of 10
